Test results: patent US20200239888
For at least one entry, the source does not settle the construct or the ends of the probe. For part of these data: At least one result comes from cells or an extract, where the contact may be indirect. For part of these data: Tags and fusion partners may be left off the protein sequences shown.

How the values were obtained:
PSF / p54nrb heterodimer = test: competition with a labelled probe; conditions: full PS, all C 5mC, disruption of PSF-p54nrb BRET in HeLa lysate, reported as KD (50% dissociation), protein in a lysate after overexpression
[1] = target: T1, NLUC-FUS(1-526)[P525L]-HA (UniProt P35637); test: binding assay; conditions: full PS, nanoBRET, protein translated in vitro, label: 5'-AF594
T1 sequence (looked up): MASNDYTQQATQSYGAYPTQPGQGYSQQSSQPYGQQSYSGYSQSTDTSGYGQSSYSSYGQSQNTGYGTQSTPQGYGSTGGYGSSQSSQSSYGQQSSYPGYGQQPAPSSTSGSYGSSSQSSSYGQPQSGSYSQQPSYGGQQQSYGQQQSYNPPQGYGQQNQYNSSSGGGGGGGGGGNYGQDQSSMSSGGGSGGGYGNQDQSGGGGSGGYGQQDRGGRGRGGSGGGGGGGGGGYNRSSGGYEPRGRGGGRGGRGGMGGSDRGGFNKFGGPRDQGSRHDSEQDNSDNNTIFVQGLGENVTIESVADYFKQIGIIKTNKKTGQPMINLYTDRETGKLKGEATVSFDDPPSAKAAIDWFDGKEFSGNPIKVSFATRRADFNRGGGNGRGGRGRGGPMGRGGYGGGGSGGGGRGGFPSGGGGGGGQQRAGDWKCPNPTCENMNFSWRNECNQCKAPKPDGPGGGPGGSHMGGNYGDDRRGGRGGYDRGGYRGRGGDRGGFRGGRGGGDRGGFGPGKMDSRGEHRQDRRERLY

FUS(242-375)-NLUC-HA = target: T2, FUS(242-375)-NLUC-HA (UniProt P35637); test: binding assay; conditions: full PS, nanoBRET, protein translated in vitro, protein details: C-terminal NLUC-HA, PURExpress, bead-bound, label: 5'-AF594
T2 sequence (looked up): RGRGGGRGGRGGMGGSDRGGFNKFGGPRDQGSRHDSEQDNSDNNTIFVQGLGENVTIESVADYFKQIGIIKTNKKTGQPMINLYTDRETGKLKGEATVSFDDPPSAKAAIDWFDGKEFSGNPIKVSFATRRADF

[2] = target: T3, FUS(1-526)[P525L]-NLUC-FLAG (UniProt P35637); test: binding assay; conditions: full PS, nanoBRET, protein translated in vitro, protein details: C-terminal NLUC-FLAG, PURExpress, bead-bound, label: 5'-AF594
T3 sequence (looked up): T1 sequence (looked up)

[3] = target: T4, FUS(1-421)-FUS(455-526)[P525L]-NLUC-FLAG deletion 422-454, P525L (UniProt P35637); test: binding assay; conditions: nanoBRET, protein translated in vitro, protein details: C-terminal NLUC-FLAG, PURExpress, bead-bound, label: 5'-AF594
T4 sequence (looked up): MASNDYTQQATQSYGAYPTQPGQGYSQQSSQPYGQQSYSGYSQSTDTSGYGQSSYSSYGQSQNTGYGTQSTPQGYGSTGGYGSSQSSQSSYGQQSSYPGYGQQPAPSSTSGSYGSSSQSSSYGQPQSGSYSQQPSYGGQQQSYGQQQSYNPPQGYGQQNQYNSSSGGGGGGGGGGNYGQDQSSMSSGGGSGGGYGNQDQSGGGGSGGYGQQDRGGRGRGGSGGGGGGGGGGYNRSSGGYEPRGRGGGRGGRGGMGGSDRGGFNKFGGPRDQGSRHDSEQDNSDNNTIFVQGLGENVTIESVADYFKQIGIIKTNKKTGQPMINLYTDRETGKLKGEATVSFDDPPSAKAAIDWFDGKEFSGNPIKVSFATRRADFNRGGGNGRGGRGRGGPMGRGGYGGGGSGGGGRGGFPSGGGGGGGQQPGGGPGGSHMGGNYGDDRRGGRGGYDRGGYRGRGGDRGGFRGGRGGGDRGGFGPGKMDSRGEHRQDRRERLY

[4] = target: T5, HA-NES-β23-NLUC-FUS(375-526)[P525L] (UniProt P35637); test: binding assay; conditions: full PS, nanoBRET, protein translated in vitro, protein details: HA-NES-β23-NLUC fusion at N-terminus, label: 5'-AF594
T5 sequence (looked up): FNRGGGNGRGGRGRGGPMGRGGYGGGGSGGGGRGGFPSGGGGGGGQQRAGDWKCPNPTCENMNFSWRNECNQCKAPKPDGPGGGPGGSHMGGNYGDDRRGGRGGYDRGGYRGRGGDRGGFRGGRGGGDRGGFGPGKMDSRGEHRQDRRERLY

[5] = target: T6, FUS(1-526)[P525L]-NLUC-HA (UniProt P35637); test: binding assay; conditions: full PS, nanoBRET, protein translated in vitro, protein details: C-terminal NLUC-HA, PURExpress, bead-bound, label: 5'-AF594
T6 sequence (looked up): T1 sequence (looked up)

FUS(284-375)-NLUC-HA = target: T7, FUS(284-375)-NLUC-HA (UniProt P35637); test: binding assay; conditions: full PS, nanoBRET, protein translated in vitro, protein details: C-terminal NLUC-HA, PURExpress, bead-bound, label: 5'-AF594
T7 sequence (looked up): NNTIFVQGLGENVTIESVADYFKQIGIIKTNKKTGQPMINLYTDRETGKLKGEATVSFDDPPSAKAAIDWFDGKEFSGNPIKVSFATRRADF

[6] = target: T8, FUS(455-526)[P525L]-NLUC-HA (UniProt P35637); test: binding assay; conditions: full PS, nanoBRET, protein translated in vitro, protein details: C-terminal NLUC-HA, PURExpress, bead-bound, label: 5'-AF594
T8 sequence (looked up): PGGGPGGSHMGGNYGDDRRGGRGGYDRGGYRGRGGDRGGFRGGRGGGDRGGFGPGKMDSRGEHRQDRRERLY

FUS(1-375)-NLUC-HA = target: T9, FUS(1-375)-NLUC-HA (UniProt P35637); test: binding assay; conditions: full PS, nanoBRET, protein translated in vitro, protein details: C-terminal NLUC-HA, PURExpress, bead-bound, label: 5'-AF594
T9 sequence (looked up): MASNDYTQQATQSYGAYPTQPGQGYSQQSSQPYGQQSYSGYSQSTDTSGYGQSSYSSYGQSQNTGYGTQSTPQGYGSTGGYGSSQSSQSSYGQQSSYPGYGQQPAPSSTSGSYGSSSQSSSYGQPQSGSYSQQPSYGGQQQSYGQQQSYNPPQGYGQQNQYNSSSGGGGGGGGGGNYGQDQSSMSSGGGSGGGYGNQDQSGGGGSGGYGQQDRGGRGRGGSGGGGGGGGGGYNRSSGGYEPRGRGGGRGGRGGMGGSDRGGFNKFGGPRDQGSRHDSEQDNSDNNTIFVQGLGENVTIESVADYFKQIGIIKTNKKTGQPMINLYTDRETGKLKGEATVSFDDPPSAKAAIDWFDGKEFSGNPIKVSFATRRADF

FUS(213-375)-NLUC-HA = target: T10, FUS(213-375)-NLUC-HA (UniProt P35637); test: binding assay; conditions: full PS, nanoBRET, protein translated in vitro, protein details: C-terminal NLUC-HA, PURExpress, bead-bound, label: 5'-AF594
T10 sequence (looked up): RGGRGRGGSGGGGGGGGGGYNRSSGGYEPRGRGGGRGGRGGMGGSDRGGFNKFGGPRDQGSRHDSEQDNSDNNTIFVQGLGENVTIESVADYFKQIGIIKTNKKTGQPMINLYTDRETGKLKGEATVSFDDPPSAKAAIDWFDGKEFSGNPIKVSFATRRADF

[7] = target: T11, FUS(375-526)[P525L]-NLUC-HA (UniProt P35637); test: binding assay; conditions: full PS, nanoBRET, protein translated in vitro, protein details: C-terminal NLUC-HA, PURExpress, bead-bound, label: 5'-AF594
T11 sequence (looked up): T5 sequence (looked up)

FUS(375-421)-NLUC-HA = target: T12, FUS(375-421)-NLUC-HA (UniProt P35637); test: binding assay; conditions: full PS, nanoBRET, protein translated in vitro, protein details: C-terminal NLUC-HA, PURExpress, bead-bound, label: 5'-AF594
T12 sequence (looked up): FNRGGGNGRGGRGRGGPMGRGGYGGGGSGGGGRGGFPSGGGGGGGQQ

FUS(1-283)-NLUC-HA = target: T13, FUS(1-283)-NLUC-HA (UniProt P35637); test: binding assay; conditions: full PS, nanoBRET, protein translated in vitro, protein details: C-terminal NLUC-HA, PURExpress, bead-bound, label: 5'-AF594
T13 sequence (looked up): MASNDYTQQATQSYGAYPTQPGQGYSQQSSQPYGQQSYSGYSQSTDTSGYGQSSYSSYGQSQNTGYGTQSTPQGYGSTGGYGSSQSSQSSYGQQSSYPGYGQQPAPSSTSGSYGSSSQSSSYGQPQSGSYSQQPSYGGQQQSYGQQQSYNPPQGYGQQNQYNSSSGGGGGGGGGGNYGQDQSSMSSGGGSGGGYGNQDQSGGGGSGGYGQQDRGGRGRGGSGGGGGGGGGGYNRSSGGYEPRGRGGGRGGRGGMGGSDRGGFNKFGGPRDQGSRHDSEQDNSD

[8] = 2'-MOE at 1-5 and 16-20, DNA at 6-15, all C 5mC
[9] = cEt at 1-5 and 16-20, DNA at 6-15, all C 5mC
[10] = 2'-F at 1-5 and 16-20, DNA at 6-15, 5mC at C8, C9, C11

Sequence: CTGCTAGCCTCTGGATTTGA [116847 (2'-MOE 5-10-5 gapmer)]
- IC50 (PSF / p54nrb heterodimer; 2'-MOE at 1-5 and 16-20, DNA at 6-15): 2.46 nM

Sequence: CTGCTAGCCTCTGGATTTGA [582801 (cEt 5-10-5 gapmer)]
- IC50 (PSF / p54nrb heterodimer; cEt at 1-5 and 16-20, DNA at 6-15): 5.12 nM

Sequence: CTGCTAGCCTCTGGATTTGA [766633 (2'-MOE 5-10-5 gapmer)]
- Kd [1, 8]: 16.6 nM
- Kd (FUS(242-375)-NLUC-HA; [8]): 103 nM
- Kd [2, 8]: 1.2 nM
- Kd ([3]; 2'-MOE at 1-5 and 16-20, DNA at 6-15, full PS, all C 5mC): 4.2 nM
- Kd [4, 8]: 164 nM
- Kd [5, 8]: 16.4 nM
- Kd (FUS(284-375)-NLUC-HA; 2'-MOE at 1-5 and 16-20, DNA at 6-15, all C 5mC, repeat >1000 nM in Table 15): > 1000 nM
- Kd [6, 8]: 39.4 nM
- Kd (FUS(1-375)-NLUC-HA; 2'-MOE at 1-5 and 16-20, DNA at 6-15, all C 5mC, repeat 11.8 nM in Table 15): 16.7 nM
- Kd (FUS(213-375)-NLUC-HA; [8]): 10 nM
- Kd ([7]; 2'-MOE at 1-5 and 16-20, DNA at 6-15, all C 5mC, repeat 23.7 nM in Table 16 (printed P252L)): 36.8 nM
- Kd (FUS(375-421)-NLUC-HA; [8]): 291 nM
- Kd (FUS(1-283)-NLUC-HA; 2'-MOE at 1-5 and 16-20, DNA at 6-15, all C 5mC, 100 mM KOAc, 20 mM Tris pH 8.0, RT): 44.7 nM

Sequence: CTGCTAGCCTCTGGATTTGA [766635 (cEt 5-10-5 gapmer)]
- Kd [1, 9]: 12.4 nM
- Kd (FUS(242-375)-NLUC-HA; [9]): 117 nM
- Kd [2, 9]: 3 nM
- Kd ([3]; cEt at 1-5 and 16-20, DNA at 6-15, full PS, all C 5mC): 6.8 nM
- Kd [4, 9]: 58.4 nM
- Kd [5, 9]: 17.2 nM
- Kd (FUS(284-375)-NLUC-HA; cEt at 1-5 and 16-20, DNA at 6-15, all C 5mC, repeat >1000 nM in Table 15): > 1000 nM
- Kd [6, 9]: 34.3 nM
- Kd (FUS(1-375)-NLUC-HA; cEt at 1-5 and 16-20, DNA at 6-15, all C 5mC, repeat 11.3 nM in Table 15): 12.1 nM
- Kd (FUS(213-375)-NLUC-HA; [9]): 9 nM
- Kd ([7]; cEt at 1-5 and 16-20, DNA at 6-15, all C 5mC, repeat 19 nM in Table 16 (printed P252L)): 30.7 nM
- Kd (FUS(375-421)-NLUC-HA; [9]): 203 nM
- Kd (FUS(1-283)-NLUC-HA; [9]): 35.2 nM

Sequence: CUGCUAGCCTCTGGAUUUGA [766637 (2'-F 5-10-5 gapmer)]
- Kd [1, 10]: 1.9 nM
- Kd (FUS(242-375)-NLUC-HA; [10]): 11 nM
- Kd [2, 10]: 0.4 nM
- Kd ([3]; 2'-F at 1-5 and 16-20, DNA at 6-15, full PS, 5mC at C8, C9, C11): 1.1 nM
- Kd [4, 10]: 13.8 nM
- Kd [5, 10]: 2.2 nM
- Kd (FUS(284-375)-NLUC-HA; 2'-F at 1-5 and 16-20, DNA at 6-15, 5mC at C8, C9, C11, repeat 424.1 nM in Table 15): 340 nM
- Kd [6, 10]: 6.6 nM
- Kd (FUS(1-375)-NLUC-HA; 2'-F at 1-5 and 16-20, DNA at 6-15, 5mC at C8, C9, C11, repeat 0.8 nM in Table 15): 1.4 nM
- Kd (FUS(213-375)-NLUC-HA; [10]): 0.9 nM
- Kd ([7]; 2'-F at 1-5 and 16-20, DNA at 6-15, 5mC at C8, C9, C11, repeat 2.9 nM in Table 16 (printed P252L)): 4.4 nM
- Kd (FUS(375-421)-NLUC-HA; [10]): 40.8 nM
- Kd (FUS(1-283)-NLUC-HA; [10]): 7.1 nM

Sequence: CUGCUAGCCUCUGGAUUUGA [JB39 (RNA, phosphodiester)]
- Kd [3]: 206 nM
